Experimental data: patent EP1283052A1, “Pharmaceutical composition containing caspase-8 and /or caspase-9 useful for overcoming glucocorticoid- and cancer therapy-induced apoptosis of tumours” (Deutsches Krebsforschungszentrum Stiftung des öffentlichen …, priority 2001, dated 2003)
For at least one compound, name, drawing or mass did not settle the structure.

Tested on: caspase-9
Test: RT-PCR for caspase-9 mRNA expression in P5 cells
Assay type: cell-based, human
Conditions: DEX co-treatment 1 µM, Fig. 4a
Protocol: P5 cells either untreated (CO) or stimulated with cisplatin (CIS, 2 µg/ml) were incubated in the absence or presence of DEX (1 µM). • (a) 6 and 24 h later RNA was extracted and assayed by RT-PCR for expression of caspase-9. Expression of the GAPDH gene served as control for equal conditions. • (b) 24 h after stimulation expression of caspase-9 proteins was examined by immunofluorescence staining using a rabbit polyclonal caspase-9 antibody and a FITC-coupled secondary antibody. Staining with the secondary antibody alone served as control for unspecific binding. • (c) 48 and 72 h after treatment whole cell proteins were extracted and analysed for expression of caspase-9 and caspase-3. The protein sizes in kDa are indicated on the right. […]
• (A) Cell culture. […] The mice were given 0.28 mg/L DEX in drinking water, and the amount of water consumed was monitored. […] The tumour volumes were measured using callipers, and calculated using, as an approximation, the formula for volume of a hemi-ellipsoid: π(width^2 x length)/6. […] Early apoptotic changes were identified by staining of cells with fluoresceinthiocyanate (FITC)-conjugated annexin V and propidium iodide (Becton Dickinson, Heidelberg, Germany) and analysed by flow cytometry (FACScan, Becton Dickinson) as described (Herr et al., EMBO J. 16 (1997), 6200-6208) • (E) Immunohistochemistry. […]

C[C@@H]1C[C@H]2[C@@H]3CCC4=CC(=O)C=C[C@]4(C)[C@@]3(F)[C@@H](O)C[C@]2(C)[C@@]1(O)C(=O)CO [DEX, dexamethasone]
caspase-9 mRNA expression: downregulated basal and upregulated expression
